Measured values taken from PubChem BioAssay AID493014 (National Center for Advancing Translational Sciences (NCATS), 2011).
In all, about 340,000 compounds went through this assay and about 170 (0.05%) were called active. This list was built around the results that the source calls inconclusive (neither active nor inactive); the mix of calls is not that of the screen. Calls follow the shape of the dose curve; as a rule, active = well fitted inhibition curve with a large enough effect in the signal ratio, with a control signal flat (not every such curve was filed as active); inconclusive = small, poorly fitted or top-dose-only effect, or effect the other way, or a change in a side signal; inactive = flat fitted curve, though single readings scatter; the % refers to the signal ratio. Potencies beside an inconclusive call are fits to weak or partial responses and may not hold up.

Experiment: qHTS Assay to Find Inhibitors of Chronic Active B-Cell Receptor Signaling;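 as to activity change, negative = inhibition: plate controls were basal doxycycline-induced cells for no effect and cells given 10 µM MG132 for full effect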
Conditions: ABC-DLBCL IkBa-CBG/CBR reporter, luminescence ratio (green luciferase fused to IkBa over red control in TMD8 lymphoma cells), 4 h; activity change, negative = inhibition: at 46.1 µM (top of the series) unless noted
Procedure, shortened: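 Doxycycline induced both beetle luciferases in TMD8 lymphoma cells; IKK-driven degradation limits the IkappaBalpha-fused green signal, while red luminescence normalises for cell number and nonspecific effects. Compounds tested up to 46 uM, 4 hrs.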
Potency is read from the fitted curve at half-maximal effect.

SMILES	Potency	activity change, negative = inhibition
O=C(Nc1ccc2nsnc2c1)c1ccc2c(c1)OCO2	inconclusive: 10.3 µM [falling, partial curve]	
CCOC(=O)c1nnn(CC(=O)N2N=C(c3cccc4ccccc34)CC2c2ccccc2)c1C(=O)OCC (stereo not given)		inactive: -0.2%
Cc1ccc(S(=O)(=O)NC2CCCc3ccccc32)cc1C (stereo not given)		inconclusive: -7.54%
COc1ccc(-c2cc(C(F)(F)F)nc(N3CCN(C)CC3)n2)cc1		inactive: 2.29%
O=C(NCCN1CCCC1)c1ccc(Cn2c(=S)[nH]c3cc4c(cc3c2=O)OCO4)cc1	inconclusive: 35.5 µM [falling, partial curve, poor fit]	
CC(C)(C)C(=O)NC(c1ccccc1)c1c(O)ccc2ccccc12 (stereo not given)		inconclusive: 0.183%
COC(=O)[C@@H](Cc1ccccc1)NC(=O)NCCc1ccc(OC)c(OC)c1		inactive: 0.248%
CSCCOC(=O)C1=C(C)Nc2ccc(C)cc2S1		inconclusive: 20%
CCc1c(C(C)O)oc2ccc3c(C)cc(=O)oc3c12 (stereo not given)		inconclusive: -20.1%
Cc1ccc(C(=O)c2cc3ccccc3o2)cc1[N+](=O)[O-]		inconclusive: 0.939%
C=CCNC(=O)c1onc(CSc2cc(C)ccc2C)c1C(=O)O	inconclusive: 31.6 µM [falling, partial curve]	
CCc1ccccc1NC(=O)CNC(=O)c1cc(C2CC2)nn1-c1ccccc1		inconclusive: -4.98%
OCCSc1nc(N2CCOCC2)nc(N2CCOCC2)n1	inconclusive: 7.94 µM [falling, partial curve, poor fit]	
Oc1ccc(/C=N/Nc2ncc(Br)cn2)c(O)c1	inconclusive: 29.1 µM [falling, single point]	
O=C(Cn1cc(CNC(=O)C2CCCCC2)nn1)Nc1cc(C(F)(F)F)ccc1Cl		inactive: 5.05%
Cc1cc(C)c(C)c(OCCCCN(C)Cc2ccccc2)c1		inactive: 0.944%
Fc1ccccc1N1CC(c2ccccc2)C(c2cccs2)=N1 (stereo not given)	inconclusive: 18.4 µM [rising, single point]	
CCc1nnc(NC2=NCCC2)s1		inconclusive: 5.42%
CC(C)CN1C=C2C(=O)C(C)(OC(=O)C3CCCC3)C(=O)C=C2C=C1c1ccsc1 (stereo not given)		inconclusive: 11.1%
c1ccc(Nc2cccc(Nc3ccccc3)n2)cc1	inconclusive: 16.4 µM [falling, single point]	
O=C(CCN1CCc2ccccc2C1)Nc1ccccc1F	inconclusive: 10.3 µM [falling, partial curve]	
O=C(Nc1cccc(S(=O)(=O)Nc2ccc(Cl)cc2)c1)c1ccc2c(c1)OCCO2		inconclusive: 12.5%
CCOc1ccc(Cn2nnc(C(=O)NCc3ccc(OC)cc3)c2N)cc1		inconclusive: 1.29%
Nc1nnc(COc2ccc(Br)cc2Br)s1		inconclusive: -1.6%
COc1ccc(-c2cn(-c3ccccc3)c(=S)[nH]2)cc1OC		inconclusive: -1.05%
Cc1ccc(S(=O)(=O)N2CCN(C(=O)N(c3ccccc3)c3ccccc3)CC2)cc1		inconclusive: 12.1%
COCC(C)NC(C(=O)Nc1ccc(C)c(Cl)c1)c1ccccc1 (stereo not given)		inconclusive: 5.36%
O=C1NC(=Nc2ccccc2)S/C1=C\c1cccs1	inconclusive: 11.2 µM [falling, partial curve]	

SMILES	Potency	activity change, negative = inhibition
COCc1cc(C)nc2c1C(=O)NC(c1ccc(C)cc1)N2Cc1ccccc1 (stereo not given)		inactive: 3.7%
CCOc1ccc(/C=N/N2C(C)CCCC2C)cc1 (stereo not given)		inactive: 2.81%
CC(=O)C1=C(O)C(=O)N(c2ccc(Br)cn2)C1c1ccccc1F (stereo not given)		inconclusive: 3.36%
Cc1ccc(NC(=O)c2cc(N3CCOCC3)nc3ccccc23)cc1		inactive: -2.16%
CC(NC(=S)Nc1ccccc1OC(F)F)C(C)(C)C (stereo not given)		inactive: 2.26%
COC(=O)c1ccc(NC(=O)Nc2ccc(F)c(Cl)c2)cc1	inconclusive: 9.2 µM [falling, partial curve]	
COc1cccc(OC(=O)c2cc3ccccc3oc2=O)c1		inconclusive: 3.07%
Cc1ccccc1Nc1nn2c(=O)c3ccc(C(=O)NCc4ccccc4)cc3nc2s1	inconclusive: 2.82 µM [falling, full curve, poor fit]	
CCC1CCCCN1Cc1ccc(OC)c(C)c1C (stereo not given)		inactive: -2.31%
CCO/N=C/C(=O)Nc1ccc(F)cc1F	inconclusive: 11.2 µM [falling, partial curve]	
CCCNC(=O)Nc1ccc(C(F)(F)F)cc1		inconclusive: 19.8%
O=C(Nc1nccs1)c1cc2sccc2n1Cc1ccc(Cl)cc1	inconclusive: 7.31 µM [rising, partial curve, poor fit]	
N#C/C(=C/c1ccncc1)c1nc2ccccc2c(=O)[nH]1	inconclusive: 20 µM [falling, single point]	
COc1ccc(Cl)cc1NC(=O)CC(=O)Nc1cc(Cl)ccc1OC		inconclusive: 7.15%
CCCc1cc2nnc(SCC(=O)N(C)C3CCCCC3)n2c(N)n1		inconclusive: -19.2%
CSC1=NC(C)(C)C=C(/C=C/c2ccc(Cl)cc2)N1	inconclusive: 10 µM [falling, partial curve]	
N/C(=N\OC(=O)CC1CCCCC1)c1ccncc1		inconclusive: 10.5%
CCSc1nnc(NC(=O)C2CC(=O)N(Cc3ccccc3)C2)s1 (stereo not given)		inconclusive: -12.6%
CSc1cc(/C=N/O)c(SC)s1		inconclusive: 7.08%
CCc1cc2c(=O)[nH]c(CC(N)=O)nc2s1		inconclusive: 11.1%
CCOC(=O)N1CCN(C(=O)C2CCN(c3ncnc4c3sc3cccc(F)c34)CC2)CC1		inconclusive: -3.65%
COc1ccc(-c2nnc(SCC(=O)Oc3ccc(C)cc3)o2)cc1		inconclusive: -17.3%
COC(=O)c1sc(N2CCCCC2)c(C#N)c1N		inactive: 7.76%
COc1ccc(-c2ccc(Nc3ccc(C(=O)N4CCOCC4)cc3)nn2)cc1OC	inconclusive: 29.1 µM [falling, single point]	
O=C(Nc1cccc(S(=O)(=O)N2CCCCC2)c1)c1ccc2c(c1)OCO2		inconclusive: -0.349%
COC(=O)c1cccc2c1NC(=O)C2=O		inactive: -6.43%
C/C(=N\NC(=O)c1nn(C)c(C)c1Br)c1ccc(NC(=O)c2ccoc2C)cc1	inconclusive: 23.1 µM [falling, single point]	
